Measurements taken from patent publication US20090220533A1, “Novel T-Helper Antigenic Determinant (THD) Peptides” (priority 2005, published 2009).
Part of at least one peptide drawing is inferred or uncertain, most often the ends. No end group written: not given here.

Molecular target: HLA-DR1 (Homo sapiens, UniProt P01903+P01911, A100R/D57E/F55L/F60I/F76Y/I96L/L162R/M171V/P40L/Q125E/R42F/V115G/Y59C)
Assay: Competition binding of peptides to HLA-DR1 on B lymphocyte line against biotinylated HA(306-320) (FIG. 1)

FKYRMMMRMRAAA [p45, FKYRMMMRMRAAA]
Binding to HLA-DR1 (non-biotinylated peptide, competition): does not bind in detectable manner
